# PubChem BioAssay AID1471 (National Center for Advancing Translational Sciences (NCATS), 2008)
# Among all 230,000 compounds or so, about 310 (0.13%) were called active. This list was built around the results that the source calls inconclusive (neither active nor inactive); the mix of calls is not that of the screen. The call rests on the fitted dose curve; in most records, active means well fitted activation curve with a large enough effect; inconclusive means small, poorly fitted or top-dose-only effect; inactive means no such curve, though single readings can be large or run the other way. Potencies beside an inconclusive call are fits to weak or partial responses and may not hold up.
# Test: qHTS Multiplex Assay to Identify Dual Action Probes in a Cell Model of Huntington: Cytoprotection (ATP); further: nearly all actives have a fitted effect of over 45% in size;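 on cytoprotection (ATP increase): toxic huntingtin expression switched on by the ecdysone agonist tebufenozide; % of control where 0% means no effect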
# Details: PC12 HTT-Q103 induced, ATP luminescence, 40 h; cytoprotection (ATP increase): at 56.4 µM (top of the series) unless noted
# Text: NIH Chemical Genomics Center [NCGC]
# NIH Molecular Libraries Probe Production centers Network [MLPCN]
# Assay Submitter (PI): Wei Zheng
# Huntington's disease is a neurodegenerative disorder caused by a trinucleotide repeat expansion in Exon 1 of the Huntingtin gene. The CAG trinucleotide encodes glutamine and polyglutamine expansions cause cell death in selective areas of the brain. Huntington polyglutamine repeats have the tendency to form aggregates which are observable in later stages of the disease. The exact nature of the aggregates, whether toxic, protective, or insignificant, is unclear.
# A stable PC12 cell line containing a gene fusion of Exon 1 of the Huntingtin gene linked to GFP under the control of the inducible ecdysone promoter were used as the cell-based model of Huntington Disease for high throughput screening. Exon 1 of the Huntingtin gene contained an expansion of 103 polyglutamines (Q103) which, when expressed, caused cell death and distinct, bright GFP aggregates. The amount of cell death and the size and intensity of GFP aggregates increased over time and induction level. The cell death were quantified with a measurement of ATP content in the cells. A maximal 40-50% of cell death was observed when the Huntington gene was induced in this cell line.
# We optimized this assay in a homogeneous 1536 well format. A quantitative high throughput screen (qHTS) was conducted on the PC12 cells which were induced to express the toxic fusion construct. Small molecules which prevented cell death were identified by using a luminescent ATP quantification method (Perkin Elmer's ATPlite).
# PC12 cells stably containing a construct with an ecdysone inducible promoter expressing GFP fused to the exon 1 of HTTQ103 (Huntington protein which containing a 103 ployglutamine expansion) were used.
# NCGC Assay Protocol Summary:
# Sequence, Parameter, Description
# 1, Reagent, 5 uL 1500 cells/well 1536 TC treated White clear bottom plate
# 2, Compound, 23 nL Tebufenozide inducer (100 nM final) to all columns
# 3, Compound, 23 nL 40 uM to 0.5 nM Libraries
# 5, Reagent, 5 ul ATPLite cell death assay reagent
# 6, Detector, 4 sec integration with a Viewlux Luminescent
# Media consisted of phenol red free DMEM + 5% equine serum (Hyclone # SH30072.03 ), 5% supplemented Bovine Calf Serum (Hyclone # SH30074.03 ), 1x pen/strep, no G418
# Control columns: 1 = DMSO, 2= 2 uM teb dilns (1:1), 4 = 100 nM Teb inducer. Sample columns received 100 nM Teb.
# Potency means the concentration at half of the fitted maximal effect.
Compound,Potency,cytoprotection (ATP increase)
CCOc1cc(S(=O)(=O)NCc2ccncc2)ccc1Cl,"inconclusive: 89.1 nM [activator, partial curve, poor fit]",
O=C1c2cccc(OCC(=O)N3CCCc4ccccc43)c2CCN1Cc1ccc(Br)cc1,,inactive: -13.9% [at 10 µM]
N#C/C(=C/c1ccc(Sc2nc3ccccc3[nH]2)o1)c1cccc(Br)c1,,inactive: -30.5%
CCCCN(CCCC)CCCNC(=O)c1ccc2nc(-c3ccccc3NC(C)=O)c(=O)[nH]c2c1,"inconclusive: 6.3 nM [activator, full curve, poor fit]",
Cc1ccc(/C=N/Nc2cn[nH]c(=O)n2)o1,"inconclusive: 562 nM [activator, full curve, poor fit]",
O=C1OC(c2cccs2)=N/C1=C/c1ccc(-c2cccc(C(=O)O)c2)o1,,inactive: -26.9%
CCc1nnc(NC(=O)c2ccc3nc(CC)c(CC)nc3c2)s1,,inactive: -70.7%
O=C1/C(=C/c2ccncc2)CCC/C1=C\c1ccncc1,"inconclusive: 12600 nM [activator, single point]",
COC(=O)c1cc(OC)c(OC)c(OC)c1[N+](=O)[O-],"inconclusive: 1260 nM [activator, single point]",
O=C(O)/C=C\C(=O)Nc1ccccc1F,,inactive: 23.2% [at 10 µM]
CC(=O)Nc1ccc(CC(=O)O)cc1,"inconclusive: 100 nM [activator, full curve, poor fit]",
CO[C@H]1COC(=O)C/C=C\[C@H](C)COC(=O)[C@@H](C)NC(=O)C/C=C\[C@@H]1C,"inconclusive: 100 nM [activator, single point]",
CCOc1cc(CNCCc2ccc(S(N)(=O)=O)cc2)cc(Cl)c1OCc1ccccc1,"inconclusive: 3550 nM [activator, partial curve]",
CC(=O)c1ccc(N2Cc3ccccc3C3(CCOCC3)C2=N)cc1,,inactive: -43.1%
S=c1[nH]nc(-c2ccccc2Cl)n1CC1CCCO1 (stereo not given),,inactive: 8.35%
Cc1c(NC(=O)c2cc3ccccc3c(=O)s2)c(=O)n(-c2ccccc2)n1C,"inconclusive: 6310 nM [activator, single point]",
C[C@@](N)(C(=O)O)c1cccc(CC(=O)O)c1,"inconclusive: 1260 nM [activator, single point]",
COCCNC(=S)Nc1ccc(N2CCCCC2)cc1,,inactive: -23.6%

Compound,Potency,cytoprotection (ATP increase)
CCCOC(=O)c1ccc(NC(=O)CCOc2ccccc2)cc1,,inactive: -28.4%
CCOC(=O)c1sc(NCC2CCCO2)nc1C (stereo not given),"inconclusive: 5620 nM [activator, single point]",
C[C@@]12CCC3c4ccc(OC5C=CC(c6ccccc6)OC5CO)cc4CCC3C1CCC2=O (stereo not given in full),"inconclusive: 708 nM [activator, single point]",
CC(C)(C)c1ccc(C(=O)N2CCNCC2)cc1,,inactive: -3.79%
Cc1ccc(S(=O)(=O)NCC[C@@]2(C)C3CCC2(C)C(=O)C3)cc1 (stereo not given in full),"inconclusive: 3550 nM [activator, single point]",
Cn1cc(/C=C2\SC(=O)NC2=S)c2ccccc21,,inactive: -37.5%
COCCCNC(=O)/C(C#N)=C/c1ccc(OCC(=O)O)c(OC)c1,"inconclusive: 2820 nM [activator, single point]",
CC(C)(C)NC[C@H](O)c1ccc(O)c(CO)c1,"inconclusive: 89.1 nM [activator, full curve, poor fit]",
NCCC[C@@H](CC(=O)N[C@@H]1CCCC[C@H]1C(=O)N[C@H](CC(=O)N[C@@H](CCC(=O)O)CC(=O)O)Cc1c[nH]c2ccccc12)NC(=O)C[C@H](CO)NC(=O)[C@@H]1CNCC[C@H]1N,,inactive: 8.04% [at 1.9 µM]
CCn1cc(C(=O)O)c(=O)c2cnc(N3CCCC3)nc21,"inconclusive: 112 nM [activator, partial curve, poor fit]",
CC(=O)c1c(O)c2ccccc2n(C)c1=O,"inconclusive: 7940 nM [activator, partial curve]",
COc1ccc(Cn2ccnc2CO)cc1[N+](=O)[O-],"inconclusive: 5620 nM [activator, single point]",
Cc1ccc(CN2CCN(CCCn3cccn3)CC2CCO)cc1 (stereo not given),"inconclusive: 1260 nM [activator, single point]",
CCOC(=O)C1CN(S(=O)(=O)c2ccc(C)cc2)c2cc(S(=O)(=O)CC)ccc2O1 (stereo not given),,inactive: -25.2%
C=CCn1c(SCc2ccc([N+](=O)[O-])cc2)nnc1C(C)NC(=O)c1ccccc1 (stereo not given),,inactive: -33.2%
Cc1ccc2c(c1)sc1nc(=O)n(-c3ccccc3)c(=O)n12,,inactive: -25.7% [at 10 µM]
COc1ccc(C(=O)NNC(=S)NC(=O)/C=C/c2cccs2)cc1,,inactive: -48% [at 10 µM]

# Single entries from the entries so far:
# For cytoprotection (ATP increase), `CCCOC(=O)c1ccc(NC(=O)CCOc2ccccc2)cc1` has the entry inactive: -28.4%
# For Potency, `CC(C)(C)NC[C@H](O)c1ccc(O)c(CO)c1` has the entry inconclusive: 89.1 nM [activator, full curve, poor fit]
